Source: patent US6727277B1, “Compounds affecting cholesterol absorption” (Kansas State University Research Foundation, priority 2002, dated 2004)

Tested on: lymphatic absorption of cholesterol
Experiment: Lymphatic absorption of 14C-cholesterol in lymph-cannulated rats infused with lipid emulsion
Assay type: in vivo, rat
Description: Ten male Sprague-Dawley rats (Harlan Sprague Dawley, Inc., Indianapolis, Ind.) weighing 274.3±7.8 grams were housed individually in plastic cages in an environmentally controlled room of illumination (12:12-h light/dark cycle with the dark period from 0330 to 1530), humidity (60-70%), and temperature (22-25° C.) throughout the study. Rats had free access to deionized water and a nutritionally adequate diet (Table 1) containing soybean oil as the fat source and egg white as the protein source. The diet was formulated according to AIN-93G recommendations (In: Trace Elements in Laboratory Rodents (Watson, R. R., ed.), pp. 3-37. CRC Press, Boca Raton, Fla.). […]
During the duodenal infusion of lipid emulsion, lymph samples were collected hourly in preweighed ice-chilled centrifuge tubes containing 4 mg Na2-EDTA and 30 μg n-propyl gallate (Sigma Chemical, St. Louis, Mo.) as antioxidants. A portion of each lymph sample (100 μL) was mixed with scintillation liquid (ScintiVerse; Fisher Scientific, Fair Lawn, N.J.) and counted by scintillation spectrometry (Beckman LS-6500; Beckman Instruments, Fullerton, Calif.). The total ^14C-radioactivity appearing in hourly lymph volume (the hourly rates of ^14C-CH absorption) was expressed as a percentage of the total radioactivity infused (% dose). […]

SMILES: CC1(C)CCC[C@]2(C)C3=Cc4c(cc(O)c(O)c4Cl)O[C@]3(C)CC[C@@H]12 [Compound 1, (4aS,6aR,12bS)-2H-11-Chloro-1,3,4,4a,5,6,6a,12b-octahydro-4,4,6a,12b-tetramethyl-benzo[a]xanthene-9,10-diol]
- lymph volume compared to control (rats infused for eight hours): not significantly different
- Lymph volume (rats, 8 h duodenal infusion of lipid emulsion with 114.9 μmol (41.9 mg) compound 1, means ± SD, n = 5): 16.59 ± 4.20 mL/8 h
